Record: PubChem BioAssay AID1259300 (Sanger Institute, 2017)
Screen: 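Which knock-downs harm HCT15 alone or synergise with the drugs BYL719, cetuximab or trametinib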 (primary screen). Cells: HCT15 colorectal cancer cells. Reagents: siRNA pool against human genes. Treatment: anchor drug or DMSO vehicle added 24 h after seeding: BYL719 1 µM, cetuximab 5 µg/ml, trametinib 10 nM; drug doses chosen to barely affect viability alone. Read-out: 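Replicate-mean viability relative to non-targeting pool control with robust z-score for knock-down without drug; per-drug synergy scores for BYL719 (1 µM), cetuximab (5 µg/ml), trametinib (10 nM)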. Direction: viability z-score, siRNA alone: higher = more viable cells after knock-down; viability vs non-targeting, siRNA alone: higher = more viable cells; synergy score with BYL719 and synergy score with cetuximab and synergy score with trametinib: higher = stronger synergy of knock-down with drug. Call rule: 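Called active (essential) if viability z-score with knock-down alone falls below -3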. Calls: active = essential: knock-down alone lowers viability (z below -3); inactive = no strong viability loss with knock-down alone.
Here is an unselected part of 794 reagents tested. Over the whole deposit, 18 (2.3%) got an active call. 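Calls rest on knock-down alone, not drug synergy; depositor treated synergy scores above 0.15 as synergistic; drug doses alone had little viability effect.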 Viability is capped at 1. Reagent sequences are not shown. Not given: the amount of reagent, the time to read-out.

| gene | PubChem SID | viability z-score, siRNA alone | viability vs non-targeting, siRNA alone | synergy score with BYL719 | synergy score with cetuximab | synergy score with trametinib | Call |
| --- | --- | --- | --- | --- | --- | --- | --- |
| PKDCC (protein kinase domain containing, cytoplasmic) | SID152147854 | 0.625 | 1 | 0.115 | 0.0232 | -0.00208 | inactive |
| PTGS1 (prostaglandin-endoperoxide synthase 1) | SID134310518 | -0.616 | 0.91 | 0.129 | 0.0925 | 0.00858 | inactive |
| PSKH2 (protein serine kinase H2) | SID56479040 | 0.625 | 1 | 0.213 | 0.127 | -0.0984 | inactive |
| MAP3K21 (mitogen-activated protein kinase kinase kinase 21) | SID135620779 | 0.565 | 0.996 | 0.101 | -0.00232 | 0.0178 | inactive |
| ITPKB (inositol-trisphosphate 3-kinase B) | SID56479111 | 0.484 | 0.99 | 0.1 | 0.0878 | 0.19 | inactive |
| GK (glycerol kinase) | SID56479100 | 0.625 | 1 | 0.212 | 0.0648 | -0.0251 | inactive |
| DGKI (diacylglycerol kinase iota) | SID56479093 | 0.389 | 0.983 | 0.049 | 0.0288 | -0.11 | inactive |
| ARID1A (AT-rich interaction domain 1A) | SID152147093 | 0.625 | 1 | 0.215 | 0.218 | 0.142 | inactive |
| ALDH18A1 (aldehyde dehydrogenase 18 family member A1) | SID152152799 | 0.625 | 1 | 0.133 | 0 | -0.0984 | inactive |
| CSF1R (colony stimulating factor 1 receptor) | SID152152485 | 0.222 | 0.971 | -0.014 | 0.118 | 0.029 | inactive |
| RAD21 (RAD21 cohesin complex component) | SID134311994 | -0.115 | 0.946 | 0.241 | 0.169 | -0.0719 | inactive |
| CDC42BPB (CDC42 binding protein kinase beta) | SID152149037 | -0.489 | 0.919 | -0.0082 | -0.0511 | -0.00768 | inactive |
| GALK2 (galactokinase 2) | SID56479099 | 0.308 | 0.977 | 0.104 | 0.0351 | 0.0803 | inactive |
| PI4K2B (phosphatidylinositol 4-kinase type 2 beta) | SID56479132 | -0.354 | 0.929 | -0.00255 | -0.0712 | -0.129 | inactive |
| DLG2 (discs large MAGUK scaffold protein 2) | SID152155470 | -0.185 | 0.941 | -0.00167 | 0.0209 | -0.135 | inactive |
| LIMK2 (LIM domain kinase 2) | SID152148517 | -0.45 | 0.922 | 0.0423 | -0.0492 | -0.169 | inactive |
| MAPK7 (mitogen-activated protein kinase 7) | SID56478666 | 0.625 | 1 | 0.147 | 0 | -0.0128 | inactive |
| MYH10 (myosin heavy chain 10) | SID134325581 | 0.625 | 1 | 0.154 | 0.0712 | 0.0717 | inactive |
| IKBKE (inhibitor of nuclear factor kappa B kinase subunit epsilon) | SID56478721 | -1.86 | 0.819 | -0.0537 | -0.108 | -0.0332 | inactive |
| RPS6KC1 (ribosomal protein S6 kinase C1) | SID135620976 | 0.625 | 1 | 0.152 | 0.0503 | -0.0984 | inactive |
| PRKAG2 (protein kinase AMP-activated non-catalytic subunit gamma 2) | SID135621825 | 0.564 | 0.996 | 0.0935 | -0.00444 | -0.0679 | inactive |
| PAK5 (p21 (RAC1) activated kinase 5) | SID56478749 | 0.625 | 1 | 0.173 | 0.12 | -0.0726 | inactive |
| STK24 (serine/threonine kinase 24) | SID135620898 | -0.198 | 0.94 | 0.134 | -0.0599 | -0.152 | inactive |
| PIP5K1B (phosphatidylinositol-4-phosphate 5-kinase type 1 beta) | SID152154468 | 0.625 | 1 | 0.133 | 0.0637 | 0.0538 | inactive |
| MKNK2 (MAPK interacting serine/threonine kinase 2) | SID152150791 | 0.457 | 0.988 | 0.0218 | 0.0996 | -0.109 | inactive |
| VRK3 (VRK serine/threonine kinase 3) | SID135620981 | 0.625 | 1 | 0.0588 | 0.0983 | -0.0591 | inactive |
| NTRK2 (neurotrophic receptor tyrosine kinase 2) | SID152152425 | 0.625 | 1 | 0.0869 | 0 | -0.0984 | inactive |
| KRAS (KRas proto-oncogene, GTPase) | SID134310727 | -1.22 | 0.866 | 0.228 | -0.0365 | 0.00532 | inactive |
| JAK2 (Janus kinase 2) | SID56478524 | 0.625 | 1 | -0.0109 | 0.0173 | -0.00303 | inactive |
| WIPF1 (WAS/WASL interacting protein family member 1) | SID152149422 | -1.84 | 0.821 | 0.0115 | 0.0109 | -0.0836 | inactive |
| CSNK2A2 (casein kinase 2 alpha 2) | SID56478861 | 0.0146 | 0.956 | 0.193 | 0.0669 | -0.0384 | inactive |
| ACVR2B (activin A receptor type 2B) | SID135620907 | 0.511 | 0.992 | 0.285 | 0.202 | 0.163 | inactive |
| MAP3K20 (mitogen-activated protein kinase kinase kinase 20) | SID152152597 | 0.625 | 1 | 0.0619 | 0.0225 | -0.0827 | inactive |
| PIK3CG | SID56478988 | -0.424 | 0.924 | 0.1 | -0.0127 | -0.000462 | inactive |

Records listed so far whose target name begins with C or c (3):
| gene | PubChem SID | viability z-score, siRNA alone | viability vs non-targeting, siRNA alone | synergy score with BYL719 | synergy score with cetuximab | synergy score with trametinib | Call |
| --- | --- | --- | --- | --- | --- | --- | --- |
| CSF1R (colony stimulating factor 1 receptor) | SID152152485 | 0.222 | 0.971 | -0.014 | 0.118 | 0.029 | inactive |
| CDC42BPB (CDC42 binding protein kinase beta) | SID152149037 | -0.489 | 0.919 | -0.0082 | -0.0511 | -0.00768 | inactive |
| CSNK2A2 (casein kinase 2 alpha 2) | SID56478861 | 0.0146 | 0.956 | 0.193 | 0.0669 | -0.0384 | inactive |
